36 targets from the supplement of paper PMC12067093, “Discovery and optimisation of a covalent ligand for TRIM25 and its application to targeted protein ubiquitination” (Chemical Science, 2025) can be followed below.

Amino acid sequences for entries named in this document (tags omitted). A change or cut given only in a name is not applied to a line headed by its entry.
UniProt Q6P1R4: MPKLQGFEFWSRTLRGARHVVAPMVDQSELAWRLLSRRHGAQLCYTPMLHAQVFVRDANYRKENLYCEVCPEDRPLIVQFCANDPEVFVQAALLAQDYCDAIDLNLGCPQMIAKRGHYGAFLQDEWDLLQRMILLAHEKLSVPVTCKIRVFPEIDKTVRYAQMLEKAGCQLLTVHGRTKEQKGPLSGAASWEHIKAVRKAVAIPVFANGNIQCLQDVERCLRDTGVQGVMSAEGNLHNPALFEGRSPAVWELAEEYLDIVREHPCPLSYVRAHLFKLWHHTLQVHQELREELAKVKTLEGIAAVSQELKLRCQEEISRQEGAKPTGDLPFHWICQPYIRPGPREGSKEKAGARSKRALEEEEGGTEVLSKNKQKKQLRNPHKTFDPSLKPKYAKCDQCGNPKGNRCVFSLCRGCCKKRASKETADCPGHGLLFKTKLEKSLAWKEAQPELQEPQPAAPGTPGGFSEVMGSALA
UniProt P26358: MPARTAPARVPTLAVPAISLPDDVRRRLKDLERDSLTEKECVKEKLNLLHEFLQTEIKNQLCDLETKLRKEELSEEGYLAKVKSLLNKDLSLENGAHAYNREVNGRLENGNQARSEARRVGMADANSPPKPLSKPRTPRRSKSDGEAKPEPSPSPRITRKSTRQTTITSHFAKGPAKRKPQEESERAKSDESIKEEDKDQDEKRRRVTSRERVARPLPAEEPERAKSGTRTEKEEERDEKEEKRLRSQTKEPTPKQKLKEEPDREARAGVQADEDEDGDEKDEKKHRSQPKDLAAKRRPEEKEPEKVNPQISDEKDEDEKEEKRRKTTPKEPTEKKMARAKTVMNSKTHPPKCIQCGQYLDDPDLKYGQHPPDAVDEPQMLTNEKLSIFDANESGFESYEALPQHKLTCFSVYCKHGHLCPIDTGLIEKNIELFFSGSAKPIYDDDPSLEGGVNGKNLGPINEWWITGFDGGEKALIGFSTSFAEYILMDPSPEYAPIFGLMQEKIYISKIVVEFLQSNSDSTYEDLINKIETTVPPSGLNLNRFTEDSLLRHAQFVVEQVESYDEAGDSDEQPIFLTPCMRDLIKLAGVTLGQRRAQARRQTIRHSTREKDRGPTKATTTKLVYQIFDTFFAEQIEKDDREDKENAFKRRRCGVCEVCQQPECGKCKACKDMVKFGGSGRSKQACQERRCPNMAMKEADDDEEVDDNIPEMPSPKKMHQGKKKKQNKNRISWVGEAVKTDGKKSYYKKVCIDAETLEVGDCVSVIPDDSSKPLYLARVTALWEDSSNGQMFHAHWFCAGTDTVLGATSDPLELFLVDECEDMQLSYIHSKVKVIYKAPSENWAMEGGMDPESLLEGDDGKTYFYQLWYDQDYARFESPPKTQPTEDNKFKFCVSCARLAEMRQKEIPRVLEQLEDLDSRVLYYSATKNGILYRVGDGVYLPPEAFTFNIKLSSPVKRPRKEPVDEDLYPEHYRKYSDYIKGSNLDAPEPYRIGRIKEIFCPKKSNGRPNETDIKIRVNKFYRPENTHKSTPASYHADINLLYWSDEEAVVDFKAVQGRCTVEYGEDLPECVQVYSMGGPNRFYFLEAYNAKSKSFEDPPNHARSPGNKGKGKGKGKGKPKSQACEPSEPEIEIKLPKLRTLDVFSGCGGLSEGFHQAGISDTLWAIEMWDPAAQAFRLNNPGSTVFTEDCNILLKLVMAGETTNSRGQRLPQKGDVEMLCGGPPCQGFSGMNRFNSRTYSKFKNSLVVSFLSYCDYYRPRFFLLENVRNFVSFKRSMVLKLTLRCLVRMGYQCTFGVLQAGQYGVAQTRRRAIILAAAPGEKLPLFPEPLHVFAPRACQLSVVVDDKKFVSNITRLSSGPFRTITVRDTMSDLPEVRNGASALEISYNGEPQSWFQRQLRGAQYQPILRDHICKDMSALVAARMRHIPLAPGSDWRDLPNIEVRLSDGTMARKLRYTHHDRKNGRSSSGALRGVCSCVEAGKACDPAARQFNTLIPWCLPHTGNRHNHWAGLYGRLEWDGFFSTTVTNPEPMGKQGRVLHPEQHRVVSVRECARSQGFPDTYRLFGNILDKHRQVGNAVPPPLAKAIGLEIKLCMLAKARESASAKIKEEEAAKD
UniProt Q8NF50: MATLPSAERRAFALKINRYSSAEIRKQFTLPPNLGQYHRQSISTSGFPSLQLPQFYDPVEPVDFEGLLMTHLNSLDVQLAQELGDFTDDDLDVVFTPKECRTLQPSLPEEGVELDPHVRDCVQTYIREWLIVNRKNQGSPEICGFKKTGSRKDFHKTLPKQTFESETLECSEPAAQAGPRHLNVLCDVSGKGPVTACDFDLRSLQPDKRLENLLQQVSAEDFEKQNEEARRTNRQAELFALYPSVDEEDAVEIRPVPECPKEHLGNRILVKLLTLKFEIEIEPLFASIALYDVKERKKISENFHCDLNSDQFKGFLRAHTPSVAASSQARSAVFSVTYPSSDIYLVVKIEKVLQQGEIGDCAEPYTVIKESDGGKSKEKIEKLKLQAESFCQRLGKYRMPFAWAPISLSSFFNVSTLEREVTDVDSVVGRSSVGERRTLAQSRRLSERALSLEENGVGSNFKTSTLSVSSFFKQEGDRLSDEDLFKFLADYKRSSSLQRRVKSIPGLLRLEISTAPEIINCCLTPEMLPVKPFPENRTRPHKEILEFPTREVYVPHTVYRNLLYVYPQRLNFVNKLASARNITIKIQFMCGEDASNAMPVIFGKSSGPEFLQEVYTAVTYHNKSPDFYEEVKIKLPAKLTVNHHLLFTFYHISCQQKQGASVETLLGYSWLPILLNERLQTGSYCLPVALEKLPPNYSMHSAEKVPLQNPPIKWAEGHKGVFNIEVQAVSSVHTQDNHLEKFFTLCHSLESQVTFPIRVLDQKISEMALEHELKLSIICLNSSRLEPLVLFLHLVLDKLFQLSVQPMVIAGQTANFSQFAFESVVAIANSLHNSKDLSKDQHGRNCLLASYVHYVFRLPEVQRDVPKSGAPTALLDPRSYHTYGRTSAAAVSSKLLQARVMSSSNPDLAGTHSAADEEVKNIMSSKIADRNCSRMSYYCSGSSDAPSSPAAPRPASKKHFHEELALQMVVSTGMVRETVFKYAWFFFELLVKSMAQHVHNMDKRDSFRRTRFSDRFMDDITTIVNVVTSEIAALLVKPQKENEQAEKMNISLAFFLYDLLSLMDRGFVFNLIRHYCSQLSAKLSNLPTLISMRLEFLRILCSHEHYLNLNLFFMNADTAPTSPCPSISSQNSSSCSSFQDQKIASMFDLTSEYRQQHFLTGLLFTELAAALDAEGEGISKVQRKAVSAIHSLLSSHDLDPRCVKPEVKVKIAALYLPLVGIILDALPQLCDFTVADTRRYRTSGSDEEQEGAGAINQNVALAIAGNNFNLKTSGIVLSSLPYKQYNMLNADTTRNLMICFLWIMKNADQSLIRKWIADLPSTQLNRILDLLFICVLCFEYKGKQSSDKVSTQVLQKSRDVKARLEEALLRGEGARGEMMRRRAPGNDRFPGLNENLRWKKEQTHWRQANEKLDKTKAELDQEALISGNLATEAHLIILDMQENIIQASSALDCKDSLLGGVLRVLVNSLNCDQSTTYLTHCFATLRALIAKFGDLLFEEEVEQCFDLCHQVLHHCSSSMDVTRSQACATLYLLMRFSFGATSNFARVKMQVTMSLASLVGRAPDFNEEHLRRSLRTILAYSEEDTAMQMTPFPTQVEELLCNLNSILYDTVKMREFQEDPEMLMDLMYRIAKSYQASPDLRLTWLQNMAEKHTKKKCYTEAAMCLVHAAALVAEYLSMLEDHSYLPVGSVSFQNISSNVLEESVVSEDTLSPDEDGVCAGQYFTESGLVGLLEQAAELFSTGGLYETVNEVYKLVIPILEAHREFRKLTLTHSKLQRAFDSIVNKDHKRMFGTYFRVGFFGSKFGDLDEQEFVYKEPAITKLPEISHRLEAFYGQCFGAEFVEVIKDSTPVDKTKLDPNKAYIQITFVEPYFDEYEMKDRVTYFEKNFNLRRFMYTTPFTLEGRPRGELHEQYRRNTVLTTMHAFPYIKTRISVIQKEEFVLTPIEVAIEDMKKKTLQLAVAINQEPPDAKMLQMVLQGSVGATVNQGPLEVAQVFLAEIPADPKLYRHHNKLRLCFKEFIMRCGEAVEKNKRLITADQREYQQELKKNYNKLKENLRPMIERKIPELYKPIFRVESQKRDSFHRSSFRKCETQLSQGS
UniProt Q92608: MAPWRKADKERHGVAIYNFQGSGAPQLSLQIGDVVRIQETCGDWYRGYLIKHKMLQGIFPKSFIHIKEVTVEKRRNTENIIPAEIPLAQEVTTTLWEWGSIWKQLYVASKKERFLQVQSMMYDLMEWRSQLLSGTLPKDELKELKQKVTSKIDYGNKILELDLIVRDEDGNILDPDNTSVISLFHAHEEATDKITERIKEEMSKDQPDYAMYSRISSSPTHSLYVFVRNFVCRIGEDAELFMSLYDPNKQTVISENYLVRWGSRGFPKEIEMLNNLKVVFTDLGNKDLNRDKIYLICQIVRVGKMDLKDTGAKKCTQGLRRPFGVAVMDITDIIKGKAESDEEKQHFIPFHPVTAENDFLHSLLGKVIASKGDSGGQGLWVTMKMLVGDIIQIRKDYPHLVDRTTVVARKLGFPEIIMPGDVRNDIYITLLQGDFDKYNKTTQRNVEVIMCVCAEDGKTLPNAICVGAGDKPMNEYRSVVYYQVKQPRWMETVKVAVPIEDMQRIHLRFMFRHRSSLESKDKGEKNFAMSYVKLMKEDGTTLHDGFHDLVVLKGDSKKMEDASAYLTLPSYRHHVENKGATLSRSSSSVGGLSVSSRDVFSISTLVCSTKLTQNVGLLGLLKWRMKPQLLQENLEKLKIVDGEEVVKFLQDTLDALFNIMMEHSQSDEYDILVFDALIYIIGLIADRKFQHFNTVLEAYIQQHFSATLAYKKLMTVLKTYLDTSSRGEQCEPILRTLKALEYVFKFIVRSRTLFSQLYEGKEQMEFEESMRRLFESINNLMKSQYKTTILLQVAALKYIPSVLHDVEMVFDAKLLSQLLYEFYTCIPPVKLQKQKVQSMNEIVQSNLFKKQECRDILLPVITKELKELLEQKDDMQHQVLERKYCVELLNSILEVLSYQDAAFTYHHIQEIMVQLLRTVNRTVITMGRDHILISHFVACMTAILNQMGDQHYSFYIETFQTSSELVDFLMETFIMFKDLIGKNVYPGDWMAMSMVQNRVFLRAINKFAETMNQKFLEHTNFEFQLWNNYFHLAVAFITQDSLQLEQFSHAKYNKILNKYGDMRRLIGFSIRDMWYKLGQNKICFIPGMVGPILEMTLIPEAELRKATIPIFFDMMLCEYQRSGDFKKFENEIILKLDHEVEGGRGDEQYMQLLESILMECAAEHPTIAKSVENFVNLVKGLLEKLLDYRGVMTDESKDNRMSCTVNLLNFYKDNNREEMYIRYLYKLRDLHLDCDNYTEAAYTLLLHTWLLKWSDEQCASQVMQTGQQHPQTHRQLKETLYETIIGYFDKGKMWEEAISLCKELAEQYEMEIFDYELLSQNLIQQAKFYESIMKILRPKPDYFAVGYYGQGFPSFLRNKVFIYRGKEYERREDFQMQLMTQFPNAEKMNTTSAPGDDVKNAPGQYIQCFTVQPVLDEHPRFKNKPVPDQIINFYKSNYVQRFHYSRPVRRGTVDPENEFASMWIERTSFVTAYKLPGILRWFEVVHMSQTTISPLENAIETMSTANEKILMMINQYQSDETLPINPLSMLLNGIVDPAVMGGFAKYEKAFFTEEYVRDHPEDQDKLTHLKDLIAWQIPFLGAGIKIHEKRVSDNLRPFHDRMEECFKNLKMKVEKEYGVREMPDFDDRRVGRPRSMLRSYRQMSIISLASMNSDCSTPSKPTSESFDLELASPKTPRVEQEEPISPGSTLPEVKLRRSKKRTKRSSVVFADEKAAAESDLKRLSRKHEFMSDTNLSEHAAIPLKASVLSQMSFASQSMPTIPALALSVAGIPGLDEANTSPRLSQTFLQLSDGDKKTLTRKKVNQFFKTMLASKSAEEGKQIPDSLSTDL
UniProt Q99848: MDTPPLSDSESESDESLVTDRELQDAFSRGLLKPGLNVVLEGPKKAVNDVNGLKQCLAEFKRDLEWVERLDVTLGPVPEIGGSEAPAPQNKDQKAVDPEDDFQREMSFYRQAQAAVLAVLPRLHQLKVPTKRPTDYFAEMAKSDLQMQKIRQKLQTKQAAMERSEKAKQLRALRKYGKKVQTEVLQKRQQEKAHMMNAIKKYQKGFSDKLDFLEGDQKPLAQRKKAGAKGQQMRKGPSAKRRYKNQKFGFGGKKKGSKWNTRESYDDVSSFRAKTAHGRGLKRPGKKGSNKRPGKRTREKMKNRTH
UniProt Q9BVJ7: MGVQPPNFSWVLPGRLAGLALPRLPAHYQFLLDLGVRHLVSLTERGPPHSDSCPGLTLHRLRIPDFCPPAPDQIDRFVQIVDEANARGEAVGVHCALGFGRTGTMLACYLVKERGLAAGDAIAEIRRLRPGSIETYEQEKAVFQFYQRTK

The list shows a part of the results.
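Note: competitive chemoproteomic profiling in live THP-1 cells with an iodoacetamide desthiobiotin (IA-DTB) probe, comparing probe-labelled peptide intensities in compound-treated cells against DMSO-treated controls.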

Compound in the first assay: CC1Cc2ccccc2N1C(=O)C1CCCN(C1)C(=O)CCl (mixture of isomers) [TRIM25 ligand 11 (diastereomer mixture)]
Description: probe-labelled cysteine peptide fold change vs DMSO (competition) (log2 fold change); higher = less target engagement (more negative = stronger competition). Conditions: 10 µM; THP-1; incubation time: 4 h.
As to “DYNC1LI1_Q9Y6G9_247_CDAISVLEK (UniProt Q9Y6G9)”, the “probe-labelled cysteine peptide fold change” value is -0.0191.

Consider “DYNC1H1_Q14204_1977_MLSAVSQQVQCIQEALREHSNPNYDK (UniProt Q14204)”, for which the “probe-labelled cysteine peptide fold change” value is -0.708.

As for “DYNC1LI2_O43237_231_RGPLTSGSDEENVALPLGDNVLTHNLGIPVLVVCTK (UniProt O43237)”, the “probe-labelled cysteine peptide fold change” value turned out to be 0.071.

Take “DYNC1H1_Q14204_2712_IQFVGACNPPTDPGRKPLSHR (UniProt Q14204)”: the “probe-labelled cysteine peptide fold change” value worked out at 0.0109.

For “DYNC1H1_Q14204_3573_WQASSLPADDLCTENAIMLK (UniProt Q14204)”, the “probe-labelled cysteine peptide fold change” value was -0.0171.

On to “DUS1L_Q6P1R4_146_LSVPVTCK (UniProt Q6P1R4)”, for which the “probe-labelled cysteine peptide fold change” value is 0.0234.

Regarding “DNMT1_P26358_1485_ACDPAAR (UniProt P26358)”, the “probe-labelled cysteine peptide fold change” value was found to be 0.102.

With “DOCK11_Q5JSL3_835_FFHHCQLIQSGSK (UniProt Q5JSL3)”, the “probe-labelled cysteine peptide fold change” value stood at 0.204.

Consider “DSCR3_O14972_219+221_VETCGCAEGYAR (UniProt O14972)”, for which the “probe-labelled cysteine peptide fold change” value came to 0.076.

For the target “DSTN_P60981_23_CSTPEEIK (UniProt P60981)”, the “probe-labelled cysteine peptide fold change” value is -0.0643.

Regarding “DOCK8_Q8NF50_259_QAELFALYPSVDEEDAVEIRPVPECPK (UniProt Q8NF50)”, the “probe-labelled cysteine peptide fold change” value worked out at 0.0341.

For the target “DYNC1H1_Q14204_2663_WLVLFCDEINLPDMDK (UniProt Q14204)”, the “probe-labelled cysteine peptide fold change” value is -0.0337.

Regarding “DTWD2_Q8NBA8_220_CLSTLECAAVALSILEK (UniProt Q8NBA8)”, the “probe-labelled cysteine peptide fold change” value is -0.0977.

For “DOCK2_Q92608_1117_KATIPIFFDMMLCEYQR (UniProt Q92608)”, the “probe-labelled cysteine peptide fold change” value was -0.119.

With “DOCK6_Q96HP0_1619_HAELGNHAEAAQCMVHAAALVAEYLALLEDHR (UniProt Q96HP0)”, the “probe-labelled cysteine peptide fold change” value turned out to be 0.167.

In the case of “DOCK8_Q8NF50_170_QTFESETLECSEPAAQAGPR (UniProt Q8NF50)”, the “probe-labelled cysteine peptide fold change” value was -0.107.

Take “DYNC1I2_Q13409_386_TPLSAAAHTHPVYCVNVVGTQNAHNLISISTDGK (UniProt Q13409)”: the “probe-labelled cysteine peptide fold change” value turned out to be 0.383.

As to “DPYSL2_Q16555_504_GLYDGPVCEVSVTPK (UniProt Q16555)”, the “probe-labelled cysteine peptide fold change” value stood at 0.000425.

With “DOK1_Q99704_308_IAPCPSQDSLYSDPLDSTSAQAGEGVQR (UniProt Q99704)”, the “probe-labelled cysteine peptide fold change” value was -0.0613.

As for “DPP8_Q6V1X1_611_LSSPEDDPTCK (UniProt Q6V1X1)”, the “probe-labelled cysteine peptide fold change” value came to 0.0995.

Regarding “EBNA1BP2_Q99848_56_QCLAEFKR (UniProt Q99848)”, the “probe-labelled cysteine peptide fold change” value is -0.164.

Take “DPP3_Q9NY33_654_ALYEGYATVTDAPPECFLTLR (UniProt Q9NY33)”: the “probe-labelled cysteine peptide fold change” value is -0.202.

Turning to “DPYSL2_Q16555_439_THNSSLEYNIFEGMECR (UniProt Q16555)”, the “probe-labelled cysteine peptide fold change” value came to 0.0805.

In the case of “DOK3_Q7L591_144_LADCVSVLPADGESCPR (UniProt Q7L591)”, the “probe-labelled cysteine peptide fold change” value was found to be 0.0534.

In the case of “EBNA1BP2_Q99848_56_QCLAEFK (UniProt Q99848)”, the “probe-labelled cysteine peptide fold change” value was 0.0622.

Take “DRAP1_Q14919_73_QCIELEQQFDFLK (UniProt Q14919)”: the “probe-labelled cysteine peptide fold change” value was -0.144.

As for “DPP9_Q86TI2_601_FWASMMEAASCPPDYVPPEIFHFHTR (UniProt Q86TI2)”, the “probe-labelled cysteine peptide fold change” value is -0.336.

“DPP9_Q86TI2_225_LTFCHQGLSNVLDDPK (UniProt Q86TI2)”: the “probe-labelled cysteine peptide fold change” value amounted to 0.148.

Take “DYNC1H1_Q14204_3712_SSLQSQCLNEVLK (UniProt Q14204)”: the “probe-labelled cysteine peptide fold change” value stood at 0.0297.

On to “DTYMK_P23919_31_LVEALCAAGHR (UniProt P23919)”, for which the “probe-labelled cysteine peptide fold change” value was 0.136.

For the target “DUSP23_Q9BVJ7_95_GEAVGVHCALGFGR (UniProt Q9BVJ7)”, the “probe-labelled cysteine peptide fold change” value is -0.00709.

Regarding “DNPEP_Q9ULA0_413_NDTPCGTTIGPILASR (UniProt Q9ULA0)”, the “probe-labelled cysteine peptide fold change” value came to 0.199.

As to “DOCK6_Q96HP0_595_SSCSEFTR (UniProt Q96HP0)”, the “probe-labelled cysteine peptide fold change” value came out at 0.122.

With “EAPP_Q56P03_210_AMFVMNCSINK (UniProt Q56P03)”, the “probe-labelled cysteine peptide fold change” value worked out at 0.122.

Consider “DOCK8_Q8NF50_143_NQGSPEICGFK (UniProt Q8NF50)”, for which the “probe-labelled cysteine peptide fold change” value was -0.0851.

For the target “DUS3L_Q96G46_408_KGGGCALMNR (UniProt Q96G46)”, the “probe-labelled cysteine peptide fold change” value was 0.0614.

The assay is the same for the next values; noted with them: 50 µM; THP-1; incubation time: 4 h.
In the case of “DYNC1LI1_Q9Y6G9_247_CDAISVLEK (UniProt Q9Y6G9)”, the “probe-labelled cysteine peptide fold change” value was found to be 0.297.

Turning to “DYNC1H1_Q14204_1977_MLSAVSQQVQCIQEALREHSNPNYDK (UniProt Q14204)”, the “probe-labelled cysteine peptide fold change” value is -0.193.

“DYNC1LI2_O43237_231_RGPLTSGSDEENVALPLGDNVLTHNLGIPVLVVCTK (UniProt O43237)”: the “probe-labelled cysteine peptide fold change” value came out at 0.371.

Consider “DYNC1H1_Q14204_2712_IQFVGACNPPTDPGRKPLSHR (UniProt Q14204)”, for which the “probe-labelled cysteine peptide fold change” value amounted to 0.294.

Turning to “DYNC1H1_Q14204_3573_WQASSLPADDLCTENAIMLK (UniProt Q14204)”, the “probe-labelled cysteine peptide fold change” value is -0.286.

Regarding “DUS1L_Q6P1R4_146_LSVPVTCK (UniProt Q6P1R4)”, the “probe-labelled cysteine peptide fold change” value was 0.101.

As to “DNMT1_P26358_1485_ACDPAAR (UniProt P26358)”, the “probe-labelled cysteine peptide fold change” value is 0.0438.

As to “DOCK11_Q5JSL3_835_FFHHCQLIQSGSK (UniProt Q5JSL3)”, the “probe-labelled cysteine peptide fold change” value was found to be 0.163.

Take “DSCR3_O14972_219+221_VETCGCAEGYAR (UniProt O14972)”: the “probe-labelled cysteine peptide fold change” value came to 0.0699.

On to “DSTN_P60981_23_CSTPEEIK (UniProt P60981)”, for which the “probe-labelled cysteine peptide fold change” value is -0.00451.

As for “DOCK8_Q8NF50_259_QAELFALYPSVDEEDAVEIRPVPECPK (UniProt Q8NF50)”, the “probe-labelled cysteine peptide fold change” value was -0.0378.

In the case of “DYNC1H1_Q14204_2663_WLVLFCDEINLPDMDK (UniProt Q14204)”, the “probe-labelled cysteine peptide fold change” value was found to be 0.0297.

As to “DTWD2_Q8NBA8_220_CLSTLECAAVALSILEK (UniProt Q8NBA8)”, the “probe-labelled cysteine peptide fold change” value was 0.0807.

Regarding “DOCK2_Q92608_1117_KATIPIFFDMMLCEYQR (UniProt Q92608)”, the “probe-labelled cysteine peptide fold change” value stood at 0.0215.

For the target “DOCK6_Q96HP0_1619_HAELGNHAEAAQCMVHAAALVAEYLALLEDHR (UniProt Q96HP0)”, the “probe-labelled cysteine peptide fold change” value is -0.238.

As to “DOCK8_Q8NF50_170_QTFESETLECSEPAAQAGPR (UniProt Q8NF50)”, the “probe-labelled cysteine peptide fold change” value is -0.158.

On to “DYNC1I2_Q13409_386_TPLSAAAHTHPVYCVNVVGTQNAHNLISISTDGK (UniProt Q13409)”, for which the “probe-labelled cysteine peptide fold change” value was -0.0566.

For “DPYSL2_Q16555_504_GLYDGPVCEVSVTPK (UniProt Q16555)”, the “probe-labelled cysteine peptide fold change” value stood at 0.0459.

On to “DOK1_Q99704_308_IAPCPSQDSLYSDPLDSTSAQAGEGVQR (UniProt Q99704)”, for which the “probe-labelled cysteine peptide fold change” value is -0.556.

Regarding “DPP8_Q6V1X1_611_LSSPEDDPTCK (UniProt Q6V1X1)”, the “probe-labelled cysteine peptide fold change” value came to 0.0507.

For “EBNA1BP2_Q99848_56_QCLAEFKR (UniProt Q99848)”, the “probe-labelled cysteine peptide fold change” value was -0.0934.

Take “DPP3_Q9NY33_654_ALYEGYATVTDAPPECFLTLR (UniProt Q9NY33)”: the “probe-labelled cysteine peptide fold change” value is -0.11.

For the target “DPYSL2_Q16555_439_THNSSLEYNIFEGMECR (UniProt Q16555)”, the “probe-labelled cysteine peptide fold change” value was -0.109.

Take “DOK3_Q7L591_144_LADCVSVLPADGESCPR (UniProt Q7L591)”: the “probe-labelled cysteine peptide fold change” value worked out at 0.0981.

“EBNA1BP2_Q99848_56_QCLAEFK (UniProt Q99848)”: the “probe-labelled cysteine peptide fold change” value worked out at 0.00848.

In the case of “DRAP1_Q14919_73_QCIELEQQFDFLK (UniProt Q14919)”, the “probe-labelled cysteine peptide fold change” value is -0.0354.

For the target “DPP9_Q86TI2_601_FWASMMEAASCPPDYVPPEIFHFHTR (UniProt Q86TI2)”, the “probe-labelled cysteine peptide fold change” value was -0.15.

Regarding “DPP9_Q86TI2_225_LTFCHQGLSNVLDDPK (UniProt Q86TI2)”, the “probe-labelled cysteine peptide fold change” value was 0.0758.

On to “DYNC1H1_Q14204_3712_SSLQSQCLNEVLK (UniProt Q14204)”, for which the “probe-labelled cysteine peptide fold change” value amounted to 0.0508.

With “DTYMK_P23919_31_LVEALCAAGHR (UniProt P23919)”, the “probe-labelled cysteine peptide fold change” value is 0.038.

Regarding “DUSP23_Q9BVJ7_95_GEAVGVHCALGFGR (UniProt Q9BVJ7)”, the “probe-labelled cysteine peptide fold change” value is 0.14.

Regarding “DNPEP_Q9ULA0_413_NDTPCGTTIGPILASR (UniProt Q9ULA0)”, the “probe-labelled cysteine peptide fold change” value stood at 0.09.

Consider “DOCK6_Q96HP0_595_SSCSEFTR (UniProt Q96HP0)”, for which the “probe-labelled cysteine peptide fold change” value is -0.0201.

Consider “EAPP_Q56P03_210_AMFVMNCSINK (UniProt Q56P03)”, for which the “probe-labelled cysteine peptide fold change” value is 0.203.

As for “DOCK8_Q8NF50_143_NQGSPEICGFK (UniProt Q8NF50)”, the “probe-labelled cysteine peptide fold change” value was -0.363.

As to “DUS3L_Q96G46_408_KGGGCALMNR (UniProt Q96G46)”, the “probe-labelled cysteine peptide fold change” value was -0.163.
